Results are given in words; binding and its absence hold for the method and conditions named. Some entries that bind do so weakly or less than the wild type.
Experiments:
[1] = target: T1, Lectin-like transcript 1 (LLT1) (human, UniProt Q9UHP7 1-191); assay: flow cytometry on LLT1-transfected K562 cells, against isotype IgG2a
T1 construct: Type II transmembrane protein; In the assays it stood on LLT1-transfected K562 cells or was endogenous on human prostate and breast cancer cell lines and tissues; also called OCIL; CLEC2D
T1 sequence: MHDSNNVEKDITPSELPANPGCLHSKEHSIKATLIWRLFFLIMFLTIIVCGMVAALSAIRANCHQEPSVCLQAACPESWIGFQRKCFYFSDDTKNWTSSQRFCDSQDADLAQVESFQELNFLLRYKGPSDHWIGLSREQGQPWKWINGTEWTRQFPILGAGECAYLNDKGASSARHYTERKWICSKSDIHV

[2] = target: T1, Lectin-like transcript 1 (LLT1); assay: flow cytometry on DU145 prostate cancer cells, against isotype IgG2a

B1: mouse anti-human LLT1 mAb (clone 3G1) (antibody, V domains shown)
VH: EVQLQQSGPELVKPGASVKISCKASGYSFTGNYMHWVKQSPENSLEWIGEINIRTGYISYNQKFKGKATLTVDKSSSTAYMQLKSLTSEESAVYYCTRSAYWGQGTLVTVSA
VL: DIKMTQSPSSMYTSLGERVTITCKASQDIKSYLSWFQQKPGKSPKTLIYRANRLGDGVPSRVSGSGSGQDYSLTIGSLEYEDMGIYYCLQYAEFPRTFGGGTKLEIRR
binding [1]: binds
binding [2]: binds

From patent US20190071505A1 (UNIVERSITY OF NORTH TEXAS HEALTH SCIENCE CENTER, published 2019)
